Data source: PubChem BioAssay AID1259308 (NCATS, 2017)
The deposit covers about 59,000 reagents; shown is a part drawn at random. Over the whole deposit, about 1,510 (2.6%) are marked active. 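Calls use total luciferase alone and ignore viability, so some active siRNAs may act by altering cell number.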 A number with no mark means an inactive call. The numbers tell different reagents against one gene apart.

- Test: 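Candidate targets for better recombinant protein yield in mammalian cells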 (primary screen)
- System: human HEK293 embryonic kidney cells stably expressing firefly luciferase (HEK-CMV-Luc2-Hygro)
- Reagents: single siRNA against human genes, 0.8 pmol siRNA per well
- Time to read-out: 72 h
- Measured: 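Reporter luminescence and viable-cell signal on separate replicate plates, given as percent of non-targeting control and median/MAD z-scores, plus per-cell luciferase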
- Direction: total luciferase, z-score and total luciferase, % of control: higher = more reporter protein produced; luciferase per cell, z-score: higher = more reporter output per viable cell; viable cells, % of control: higher = more viable cells
- Active means: 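An siRNA counts as active if its total luciferase robust z-score exceeds 3; genes with two or more such siRNAs out of three were retested with fresh siRNAs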
- Calls: active = raised luciferase; inactive = no rise

no.	gene	siRNA no.	total luciferase, z-score	total luciferase, % of control	luciferase per cell, z-score	viable cells, % of control
1	RPS7P4	1	-0.482	72.3	-0.509	92.4
2	RPS7P4	2	0.385	89.5	0.172	95.6
3	RPS7P4	3	-2.14	39.4	-1.9	72.6
4	KIAA0930	1	0.17	85.3	0.354	86.8
5	KIAA0930	2	0.829	98.4	1.15	81.1
6	KIAA0930	3	-0.343	75.1	-0.0355	84.7
7	LINC01625	1	1.05	103	0.502	101
8	LINC01625	2	-0.171	78.5	-0.377	96.9
9	LINC01625	3	1.33	108	1.5	81.6
10	CFHR3	1	-0.632	69.3	-1.36	111
11	CFHR3	2	-0.0467	81	0.0639	89
12	CFHR3	3	-1.15	59.1	-0.739	80.2
13	PAGE2	1	-0.945	63.1	-0.798	87
14	PAGE2	2	1.5	112	1.4	86.4
15	PAGE2	3	1.18	105	1.04	89.4
16	POLR2C	1	-2.8	26.3	-3.42	72.3
17	POLR2C	2	-2.04	41.3	-1.86	75.5
18	POLR2C	3	-3.25	17.2	-4.85	69
19	CTTN	1	-0.777	66.4	-1.24	103
20	CTTN	2	-0.695	68.1	-0.746	92.6
21	CTTN	3	-0.745	67.1	-0.723	90.7
22	CGNL1	1	-0.873	64.5	-0.693	86.5
23	CGNL1	2	-0.536	71.2	-0.696	95.6
24	CGNL1	3	-0.961	62.8	-0.526	80.6
25	RASSF7	1	-0.256	76.8	-0.148	89.2
26	RASSF7	2	-0.165	78.6	0.00123	87.8
27	RASSF7	3	-0.35	74.9	-0.264	89.7
28	GCNT3	1	0.846	98.7	0.857	88
29	GCNT3	2	0.23	86.5	-0.447	109
30	GCNT3	3	0.596	93.7	0.254	98
31	UBQLNL	1	0.172	85.3	-0.206	101
32	UBQLNL	2	-1.31	55.8	-0.588	72.8
33	UBQLNL	3	-0.208	77.7	-0.52	99.6
34	PALM2AKAP2	1	-0.355	74.8	-0.572	97.2
35	PALM2AKAP2	2	-0.169	78.5	-0.577	102
36	PALM2AKAP2	3	0.0107	82.1	-0.242	97.8
37	PALM2AKAP2	4	-0.362	74.7	-0.563	96.8
38	PALM2AKAP2	5	0.189	85.6	-0.48	109
39	PALM2AKAP2	6	0.603	93.9	0.559	90.5
40	ST3GAL5	1	-2.64	29.3	-3.86	90.5
41	ST3GAL5	2	0.143	84.7	-0.318	103
42	ST3GAL5	3	0.279	87.4	0.153	93.8
43	BIN2	1	-0.398	74	-0.258	88.5
44	BIN2	2	3.05 (active)	143	2.38	85.2
45	BIN2	3	0.372	89.3	0.913	78.5
46	MRPS12	1	0.307	88	-0.0747	100
47	MRPS12	2	0.17	85.3	0.187	90.7
48	MRPS12	3	-0.439	73.2	-1.02	107
49	ALDOB	1	1.53	112	1.65	81.2
50	ALDOB	2	-1.33	55.5	-0.705	74.7
51	ALDOB	3	0.0529	82.9	0.457	82.2
52	VAPB	1	-0.842	65.1	-0.151	75.7
53	VAPB	2	-0.301	75.9	2.27	46.7
54	VAPB	3	0.841	98.6	0.684	92
55	USP29	1	-0.39	74.1	-0.713	99.9
56	USP29	2	-1.25	57	-1.6	97.1
57	USP29	3	2.58	133	2.19	83.8

Hits, among the entries above:
gene	siRNA no.	total luciferase, z-score	total luciferase, % of control	luciferase per cell, z-score	viable cells, % of control
BIN2	2	3.05 (active)	143	2.38	85.2
